The record followed here is patent US20230235052A1 (GRACELL BIOTECHNOLOGIES SHANGHAI, published 2023).

No constants are given. Whether binding was seen depends on the method and setting. Some results given as binding are weak or reduced against the parent protein; the word gives no strength.

The target of this assay is T1, human CD19 antigen (human, UniProt P15391 20-291, limits assumed).
T1 sequence (looked up): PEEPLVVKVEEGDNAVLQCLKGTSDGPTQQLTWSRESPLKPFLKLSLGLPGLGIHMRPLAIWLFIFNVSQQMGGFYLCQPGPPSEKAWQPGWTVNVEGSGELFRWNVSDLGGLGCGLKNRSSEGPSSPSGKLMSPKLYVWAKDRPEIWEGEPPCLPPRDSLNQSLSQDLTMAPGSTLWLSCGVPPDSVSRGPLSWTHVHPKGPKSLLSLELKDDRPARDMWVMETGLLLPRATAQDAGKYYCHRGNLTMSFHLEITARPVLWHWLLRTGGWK
The experiment in a line: flow cytometry of CAR-T cells carrying the scFv (VL-VH) of this antibody as CAR, stained with CD19 antigen, percent CAR+ cells. Background: In flow cytometry, cells or beads pass a laser one at a time.

B1: humanized CD19 antibody VH1 + VL1 (antibody, V domains shown)
VH: QVQLQESGPGLVKPSQTLSLTCTVSGVSLPDYGVSWIRQPPGKGLEWIGVIWGSETTYYNSALKSRVTISVDTSKNQFSLKLSSVTAADTAVYYCARHYYYGGSYAMDYWGQGTTVTVSS
VL: DIQMTQSPSSLSASVGDRVTITCRASQDISKYLNWYQQKPGKAPKLLIYHTSRLHSGVPSRFSGSGSGTDFTFTISSLQPEDIATYYCQQGNTLPYTFGGGTKLEIK
notes: also called Antibody No. 1
For the molecule B1, the binding entry is reported as “binds”.

B2: humanized CD19 antibody VH1 + VL3 (antibody, V domains shown)
VH: QVQLQESGPGLVKPSQTLSLTCTVSGVSLPDYGVSWIRQPPGKGLEWIGVIWGSETTYYNSALKSRVTISVDTSKNQFSLKLSSVTAADTAVYYCARHYYYGGSYAMDYWGQGTTVTVSS
VL: DIQMTQSPSSLSASVGDRVTITCRASQDISKYLNWYQQKPGKAPKLLIYHTSRLHSGVPSRFSGSGSGTDYTLTISSLQPEDIATYYCQQGNTLPYTFGGGTKLEIK
notes: also called Antibody No. 3
For B2, the binding result is reported as “binds”.
